No constants are given. Whether binding was seen depends on the method and setting. In cells and extracts the contact can be indirect. A yes stands for co-enrichment or nearness to the bait. Other partners may have been found. For some of these results: A no says only that the protein was not detected with the bait. Where a sequence is shown, tags or fusion partners need not be part of it.

The target in test [1] is T1, FLAG-tagged OATP1B1 (organic anion transporting polypeptide 1B1) (UniProt Q9Y6L6).
T1 sequence: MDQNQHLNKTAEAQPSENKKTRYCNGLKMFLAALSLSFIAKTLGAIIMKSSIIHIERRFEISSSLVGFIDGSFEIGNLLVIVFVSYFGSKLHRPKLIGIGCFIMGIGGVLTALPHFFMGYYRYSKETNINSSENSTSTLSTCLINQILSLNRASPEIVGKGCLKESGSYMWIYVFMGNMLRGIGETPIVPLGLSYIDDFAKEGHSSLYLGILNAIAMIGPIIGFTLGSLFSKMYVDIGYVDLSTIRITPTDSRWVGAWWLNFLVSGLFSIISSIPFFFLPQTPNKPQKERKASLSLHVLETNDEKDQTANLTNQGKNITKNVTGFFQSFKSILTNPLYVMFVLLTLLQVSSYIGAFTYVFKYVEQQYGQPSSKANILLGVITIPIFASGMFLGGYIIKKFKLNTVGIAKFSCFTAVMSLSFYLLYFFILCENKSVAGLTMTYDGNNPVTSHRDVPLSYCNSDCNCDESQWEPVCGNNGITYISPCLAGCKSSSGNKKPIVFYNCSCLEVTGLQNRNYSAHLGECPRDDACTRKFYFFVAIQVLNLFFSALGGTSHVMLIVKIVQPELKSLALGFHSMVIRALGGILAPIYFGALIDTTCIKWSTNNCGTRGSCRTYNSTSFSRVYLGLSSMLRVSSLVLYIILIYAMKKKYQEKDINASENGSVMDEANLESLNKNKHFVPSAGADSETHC
Description: affinity purification with mass spectrometry; FLAG-IP (M2 resin, overnight, 4 °C) from whole cell lysates of HEK293-FLAG-OATP1B1, HEK293-FLAG-OATP1B3 and HEK293-Mock cells; lysis buffer 50 mM Tris-HCl pH 7.4, 150 mM NaCl, 1 mM EDTA, 1% Triton X-100; seven washes; elution in SDS sample buffer at 60 °C; LC-MS/MS; N = 1; no drug treatment.

Test [2] deals with T2, FLAG-tagged OATP1B3 (organic anion transporting polypeptide 1B3) (UniProt Q9NPD5).
T2 sequence: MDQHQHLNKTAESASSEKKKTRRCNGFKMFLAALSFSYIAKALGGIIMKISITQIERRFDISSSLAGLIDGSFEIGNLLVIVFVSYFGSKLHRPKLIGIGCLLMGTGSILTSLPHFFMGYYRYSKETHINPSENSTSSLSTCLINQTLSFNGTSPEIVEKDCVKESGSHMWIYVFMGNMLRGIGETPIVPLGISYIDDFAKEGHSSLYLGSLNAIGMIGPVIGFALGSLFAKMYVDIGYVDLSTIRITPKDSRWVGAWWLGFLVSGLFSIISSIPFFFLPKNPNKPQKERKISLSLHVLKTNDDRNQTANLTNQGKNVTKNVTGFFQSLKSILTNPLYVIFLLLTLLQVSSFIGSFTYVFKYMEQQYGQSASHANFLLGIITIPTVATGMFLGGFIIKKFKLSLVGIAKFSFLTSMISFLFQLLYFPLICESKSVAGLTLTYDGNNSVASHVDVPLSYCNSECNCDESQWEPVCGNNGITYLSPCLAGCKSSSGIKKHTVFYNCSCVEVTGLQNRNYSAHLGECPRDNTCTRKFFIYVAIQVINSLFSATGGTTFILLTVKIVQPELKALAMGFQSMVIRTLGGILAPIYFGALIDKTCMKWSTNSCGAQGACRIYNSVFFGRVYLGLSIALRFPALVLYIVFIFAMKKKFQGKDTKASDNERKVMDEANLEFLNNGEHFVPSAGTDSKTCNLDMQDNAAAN
Described as above.

B1: TGF-beta receptor type-1 (receptor, UniProt P36897 34-503)
chain: LQCFCHLCTKDNFTCVTDGLCFVSVTETTDKVIHNSMCIAEIDLIPRDRPFVCAPSSKTGSVTTTYCCNQDHCNKIELPTTVKSSPGLGPVELAAVIAGPVCFVCISLMLMVYICHNRTVIHHRVPNEEDPSLDRPFISEGTTLKDLIYDMTTSGSGSGLPLLVQRTIARTIVLQESIGKGRFGEVWRGKWRGEEVAVKIFSSREERSWFREAEIYQTVMLRHENILGFIAADNKDNGTWTQLWLVSDYHEHGSLFDYLNRYTVTVEGMIKLALSTASGLAHLHMEIVGTQGKPAIAHRDLKSKNILVKKNGTCCIADLGLAVRHDSATDTIDIAPNHRVGTKRYMAPEVLDDSINMKHFESFKRADIYAMGLVFWEIARRCSIGGIHEDYQLPYYDLVPSDPSVEEMRKVVCEQKLRPNIPNRWQSCEALRVMAKIMRECWYANGAARLTALRIKKTLSQLSQQEGIKM
Take B1: the binding entry in test [1] and in test [2] was “binds” each time.

B2: Dual specificity mitogen-activated protein kinase kinase 3 (enzyme, UniProt P46734 1-347)
chain: MESPASSQPASMPQSKGKSKRKKDLRISCMSKPPAPNPTPPRNLDSRTFITIGDRNFEVEADDLVTISELGRGAYGVVEKVRHAQSGTIMAVKRIRATVNSQEQKRLLMDLDINMRTVDCFYTVTFYGALFREGDVWICMELMDTSLDKFYRKVLDKNMTIPEDILGEIAVSIVRALEHLHSKLSVIHRDVKPSNVLINKEGHVKMCDFGISGYLVDSVAKTMDAGCKPYMAPERINPELNQKGYNVKSDVWSLGITMIEMAILRFPYESWGTPFQQLKQVVEEPSPQLPADRFSPEFVDFTAQCLRKNPAERMSYLELMEHPFFTLHKTKKTDIAAFVKEILGEDS
Consider B2, for which the binding result in test [1] is “binds”; in test [2], “no binding”.
